Laboratory results published in patent US11235041B2, “Peptides and combination of peptides for use in immunotherapy against various cancers” (Immatics Biotechnologies GmbH, priority 2015, dated 2022).
Expression values are those of the mRNA of the gene that encodes the peptide; a gene is named only where it was looked up.

Test system: source genes of the peptides (mRNA)
Test: Expression scores and profiles of source genes, in-house RNASeq of tumor and normal tissues (Table 18, FIGS. 2)
Design: species or system human
Conditions: FIGS. 2A-2I, source gene of the peptide

## SEQ ID NO.: 59: peptide found in TNC (gene looked up) (KLLDPQEFTL; listed as Homo sapiens)
  expression profile of source gene in cancers vs panel of normal tissues: highly over-expressed or exclusively expressed in different cancers
